Source: PMC7980222
A negative result means that nothing was seen under these conditions. At least one verdict was read from the data and is not stated in words by the source.

Sequences of proteins named here, by UniProt entry; tags and fusion partners are left off. Residues count along the entry.
UniProt Q9UBB5, 139-224: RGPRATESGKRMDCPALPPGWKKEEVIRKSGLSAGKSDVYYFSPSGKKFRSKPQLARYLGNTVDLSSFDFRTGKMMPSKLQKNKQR

What follows are sequences tested against MBD2[MBD] (human) (UniProt Q9UBB5) (assay: EMSA). Details: 2 uM protein, poly(dI-dC); N-term EMSA: 10 mM Tris-HCl pH 7.5, 150 mM KCl, 5% glycerol, 0.1 mM EDTA, 0.1 mg/ml BSA, 1 ug poly(dA-dT), on ice; pull-down at 4 C; recombinant protein; residues 139-224; label: 5'-FAM on strand 1.

Row | Sequence | binding result
1 | TCTGGAACGGAATTCTTCTA / ATAGAAGAATTCCGTTCCAG [FAM CG probe, unmethylated] | no binding
2 | TCTGGAACATAATTCTTCTA / ATAGAAGAATTATGTTCCAG [FAM CAT probe, unmethylated] | no binding
3 | TCTGGAACACAATTCTTCTA / ATAGAAGAATTGTGTTCCAG [FAM CAC probe, unmethylated] | no binding
